PubChem BioAssay AID652243 | Drosophila RNAi Screening Center | 2013
In all, the deposit lists about 24,000 reagents; shown is a random part of those that have a named target and a result. In the full data, 246 (1%) were called active. 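Plates not normalised; calls are printed but the firefly/Renilla ratio behind them is not deposited; fold cut for lowering reported inconsistently.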 The raw values are shown without normalisation. The record does not give: the amount of reagent.

- Assay: 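Fly regulators of androgen-dependent reporter output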 (primary screen)
- Cell system: Drosophila S2R+ cells
- Reagents: long dsRNA against Drosophila genes
- Duration: 72 h (48 h, then 24 h hormone)
- Challenge: synthetic androgen R1881 at 10 nM for 24 h
- Read-out: 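Firefly light from an androgen-responsive reporter and Renilla control light per well, raw and unnormalised, for each of two replicates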
- Reading the numbers: firefly reporter light: higher = more light from androgen-responsive reporter; Renilla control light: higher = more constitutive control signal (cell number, transfection)
- Hit rule: 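Hit when the log firefly-to-Renilla ratio dropped or increased by a fixed fold versus the mean of GFP or LacZ controls across duplicate plates; lowering cut given as 1.5 and as 3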
- Calls: active = hit: reporter lowered or raised; inactive = no hit

gene knocked down | dsRNA | firefly reporter light, replicate 1 | firefly reporter light, replicate 2 | Renilla control light, replicate 1 | Renilla control light, replicate 2 | call
CG3434 | DRSC10365 | 1.13e6 | 4.61e5 | 1.34e6 | 5.28e5 | inactive
etaTry | DRSC07613 | 3.50e5 | 1.42e5 | 1.41e6 | 1.04e6 | inactive
etaTry | DRSC28998 | 6.43e5 | 5.36e5 | 1.50e6 | 1.29e6 | inactive
CG15368 | DRSC23291 | 5.77e5 | 6.67e5 | 1.08e6 | 1.47e6 | inactive
CG15368 | DRSC25848 | 2.52e5 | 4.47e5 | 7.35e5 | 6.26e5 | inactive
CSN1a | DRSC01951 | 1.08e5 | 1.39e5 | 1.68e6 | 2.18e6 | inactive
side | DRSC14523 | 6.45e5 | 8.57e5 | 1.77e6 | 2.21e6 | inactive
side | DRSC14716 | 2.39e5 | 2.18e5 | 2.53e6 | 2.48e6 | inactive
side | DRSC14717 | 2.27e5 | 1.60e5 | 2.22e6 | 2.91e6 | inactive
side | DRSC14718 | 2.12e5 | 2.50e5 | 1.39e6 | 3.10e6 | inactive
side | DRSC14721 | 2.02e5 | 2.01e5 | 2.44e6 | 2.98e6 | inactive
Aprt | DRSC08139 | 77611 | 80155 | 1.51e6 | 1.46e6 | inactive
CG14050 | DRSC18594 | 1.92e5 | 2.57e5 | 2.74e6 | 2.97e6 | inactive
CG9775 | DRSC12330 | 95012 | 69852 | 8.88e5 | 7.55e5 | inactive
CG9775 | DRSC22667 | 1.53e5 | 1.76e5 | 1.13e6 | 7.00e5 | inactive
CG17028 | DRSC10239 | 1.79e5 | 1.34e5 | 1.39e6 | 1.16e6 | inactive
CG17028 | DRSC29850 | 5.45e5 | 4.67e5 | 1.06e6 | 1.37e6 | inactive
CG42402 | DRSC38595 | 8.88e5 | 6.81e5 | 2.02e6 | 1.28e6 | inactive
CG42402 | DRSC38764 | 1.29e6 | 9.65e5 | 2.20e6 | 1.71e6 | inactive

Records above whose gene name begins with S or s:
gene knocked down | dsRNA | firefly reporter light, replicate 1 | firefly reporter light, replicate 2 | Renilla control light, replicate 1 | Renilla control light, replicate 2 | call
side | DRSC14523 | 6.45e5 | 8.57e5 | 1.77e6 | 2.21e6 | inactive
side | DRSC14716 | 2.39e5 | 2.18e5 | 2.53e6 | 2.48e6 | inactive
side | DRSC14717 | 2.27e5 | 1.60e5 | 2.22e6 | 2.91e6 | inactive
side | DRSC14718 | 2.12e5 | 2.50e5 | 1.39e6 | 3.10e6 | inactive
side | DRSC14721 | 2.02e5 | 2.01e5 | 2.44e6 | 2.98e6 | inactive

Further entries follow:
gene knocked down | dsRNA | firefly reporter light, replicate 1 | firefly reporter light, replicate 2 | Renilla control light, replicate 1 | Renilla control light, replicate 2 | call
Mpcp1 | DRSC07337 | 1.11e5 | 1.28e5 | 1.49e6 | 1.48e6 | inactive
Dscam2 | DRSC10198 | 1.23e5 | 1.24e5 | 1.51e6 | 1.82e6 | inactive
Dscam2 | DRSC11018 | 1.48e5 | 82077 | 1.75e6 | 1.10e6 | inactive
Dscam2 | DRSC11019 | 1.71e5 | 1.45e5 | 2.16e6 | 2.04e6 | inactive
Dscam2 | DRSC22526 | 4.02e5 | 3.19e5 | 9.71e5 | 1.06e6 | inactive
Dscam2 | DRSC25787 | 2.44e5 | 3.16e5 | 6.48e5 | 4.47e5 | inactive
Dscam2 | DRSC28220 | 3.15e5 | 4.40e5 | 8.08e5 | 1.36e6 | inactive
Lamtor5 | DRSC18491 | 3.04e5 | 4.34e5 | 3.90e6 | 4.45e6 | inactive
mew | DRSC18971 | 1.24e6 | 9.63e5 | 2.33e6 | 1.08e6 | inactive
mew | DRSC20352 | 3.87e5 | 3.58e5 | 1.64e6 | 2.01e6 | inactive
Aplip1 | DRSC08697 | 87061 | 1.08e5 | 1.30e6 | 1.74e6 | inactive
Aplip1 | DRSC21587 | 4.85e5 | 6.14e5 | 1.29e6 | 1.94e6 | inactive
Aplip1 | DRSC26312 | 3.13e5 | 2.64e5 | 6.53e5 | 5.68e5 | inactive
CG6425 | DRSC16038 | 87143 | 1.19e5 | 5.95e5 | 6.30e5 | inactive
CG3358 | DRSC04992 | 6.24e5 | 3.59e5 | 1.64e6 | 1.37e6 | inactive
Npc2d | DRSC14551 | 1.42e5 | 2.22e5 | 2.08e6 | 2.13e6 | inactive
Npc2d | DRSC28011 | 1.04e6 | 7.25e5 | 1.75e6 | 1.54e6 | inactive
ssx | DRSC18492 | 27982 | 32094 | 2.07e5 | 3.22e5 | inactive
ssx | DRSC23454 | 1.22e6 | 1.46e6 | 7.96e5 | 9.58e5 | inactive
ssx | DRSC38980 | 8.31e5 | 6.59e5 | 1.95e6 | 1.90e6 | inactive
Inx2 | DRSC18783 | 1.14e5 | 1.42e5 | 1.13e6 | 9.38e5 | inactive
Inx2 | DRSC24455 | 4.57e5 | 6.15e5 | 4.32e5 | 6.13e5 | inactive
CG3927 | DRSC04433 | 3.13e5 | 2.40e5 | 2.83e6 | 2.87e6 | inactive
CG3927 | DRSC22813 | 5.55e5 | 9.49e5 | 8.43e5 | 1.11e6 | inactive
repo | DRSC23108 | 3.53e5 | 4.20e5 | 1.06e6 | 1.15e6 | inactive
repo | DRSC26970 | 6.37e5 | 6.21e5 | 1.22e6 | 7.54e5 | inactive
CG33511 | DRSC37783 | 8.61e5 | 7.18e5 | 2.30e6 | 1.16e6 | inactive
CG31533 | DRSC13018 | 1.49e5 | 76101 | 1.77e5 | 1.87e5 | inactive
Sf3b2 | DRSC00619 | 6.33e5 | 5.14e5 | 1.87e6 | 1.88e6 | inactive
CG31437 | DRSC13711 | 74725 | 95151 | 83387 | 1.51e5 | inactive
CG33757 | DRSC38884 | 1.06e6 | 8.05e5 | 2.38e6 | 1.33e6 | inactive
CG17612 | DRSC00505 | 7.44e5 | 1.19e6 | 2.09e6 | 2.26e6 | inactive
CG17612 | DRSC28366 | 4.14e5 | 1.01e6 | 6.17e5 | 9.94e5 | inactive
CG2127 | DRSC06821 | 3.55e5 | 4.22e5 | 2.00e6 | 1.78e6 | inactive
CG6674 | DRSC10692 | 9.92e5 | 8.34e5 | 8.24e5 | 8.61e5 | inactive
CG30280 | DRSC21761 | 6.31e5 | 5.97e5 | 1.78e6 | 2.08e6 | inactive
CG31230 | DRSC22130 | 6.38e5 | 7.10e5 | 2.44e6 | 1.89e6 | inactive
CG31230 | DRSC26678 | 6.28e5 | 6.05e5 | 7.74e5 | 6.80e5 | inactive
Dic3 | DRSC06058 | 3.77e5 | 3.42e5 | 2.20e6 | 2.48e6 | inactive
